These are yes or no findings as the source states them, for the method shown. Binding seen in cells or lysates may run through a third protein. Binding calls can cover weak binding; strength is not graded here.

Protein sequences, listed by entry. Tags and fused reporters are not part of them. Lines headed by an entry give the natural chain unless they say otherwise; changes in a name come on top.
UniProt P83917: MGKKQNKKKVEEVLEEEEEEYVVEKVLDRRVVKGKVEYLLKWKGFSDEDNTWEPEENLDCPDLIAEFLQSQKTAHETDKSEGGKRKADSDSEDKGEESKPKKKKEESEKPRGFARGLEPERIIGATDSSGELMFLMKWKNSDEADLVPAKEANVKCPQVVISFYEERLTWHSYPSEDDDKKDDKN
UniProt Q13263: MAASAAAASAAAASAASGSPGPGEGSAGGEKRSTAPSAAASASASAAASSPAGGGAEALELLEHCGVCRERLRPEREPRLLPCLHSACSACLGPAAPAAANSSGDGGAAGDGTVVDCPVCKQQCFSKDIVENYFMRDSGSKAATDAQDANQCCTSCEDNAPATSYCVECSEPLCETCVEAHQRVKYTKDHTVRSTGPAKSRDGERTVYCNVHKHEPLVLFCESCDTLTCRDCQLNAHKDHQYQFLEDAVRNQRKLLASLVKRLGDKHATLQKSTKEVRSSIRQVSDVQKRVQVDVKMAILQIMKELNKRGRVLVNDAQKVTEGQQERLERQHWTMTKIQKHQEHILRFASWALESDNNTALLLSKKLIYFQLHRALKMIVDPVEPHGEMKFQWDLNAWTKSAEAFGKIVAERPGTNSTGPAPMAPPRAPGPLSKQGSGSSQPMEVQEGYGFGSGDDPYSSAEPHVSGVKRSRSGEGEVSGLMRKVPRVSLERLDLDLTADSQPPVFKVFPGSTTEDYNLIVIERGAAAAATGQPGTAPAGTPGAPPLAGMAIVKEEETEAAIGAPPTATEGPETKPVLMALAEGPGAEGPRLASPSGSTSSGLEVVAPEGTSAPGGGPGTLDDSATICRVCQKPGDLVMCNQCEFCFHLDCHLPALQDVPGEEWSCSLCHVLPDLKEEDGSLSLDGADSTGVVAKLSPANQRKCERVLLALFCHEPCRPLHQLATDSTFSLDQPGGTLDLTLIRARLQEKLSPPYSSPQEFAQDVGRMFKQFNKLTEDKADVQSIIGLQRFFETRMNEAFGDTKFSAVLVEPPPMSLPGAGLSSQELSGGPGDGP

The assay deals with GFP-HP1β S89D (HEK293T stable line; GFP-HP1β S89/91D) (UniProt P83917). Put plainly: co-IP; nuclear lysates of HEK293T lines stably expressing GFP-HP1β wt or mutants; GFP-Trap; bound fractions on coomassie stained gel; band cut out and identified by mass spectrometry.

For “KAP1 (endogenous, HEK293T) (from UniProt Q13263 1-835)”, the binding entry was “binds”.

The values are drawn from PMC8287961.
